{"source": "PubChem BioAssay AID504764 (Drosophila RNAi Screening Center, 2011)", "assay": "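Genome-wide screen for regulators of Notch-driven gene expression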 (primary screen)", "cell system": "Drosophila Kc167 cells", "reagent": "long dsRNA against Drosophila genes", "time to read-out": "about 5 days (4 days dsRNA, then 24 h after transfection)", "challenge": "transfection of constitutively active membrane-tethered Notch lacking the extracellular domain, read 24 h later", "detection": "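Firefly luciferase from an E(spl)m3 reporter with active Notch, plus control-promoter and uninduced reporter wells for normalisation; unnormalised counts, duplicate wells a and b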", "scale": "induced reporter light, run 1, well a and induced reporter light, run 1, well b: higher = more light from the Notch target reporter with active Notch; control promoter light, run 1, well a and control promoter light, run 1, well b: higher = more light from the viral control promoter (cell number, transfection, viability); uninduced reporter light, run 1, well a: higher = more light from the Notch target reporter without active Notch", "call rule": "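Wells with low control signal or poorly matching duplicates excluded; duplicates averaged; per source plate, z beyond ±2 for induced/control log2 ratio or beyond ±1.8 for induced/uninduced marks a hit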", "meaning of the calls": "active = modifier hit (raised or lowered Notch signal); inactive = not a hit", "note": "The screen tested about 22,000 reagents; shown is a random part of those with a known target gene and a result. In the full data, 403 (1.9%) are marked active. 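Unnormalised raw counts per well; ratio z-scores behind the hit calls and whether each hit raises or lowers signal are not deposited.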 Reagent sequences are not shown. Not given: the amount of reagent."}
{"target":"CG15767","amplicon":"DRSC18073","induced reporter light, run 1, well a":1.40e5,"induced reporter light, run 1, well b":1.53e5,"control promoter light, run 1, well a":2.41e5,"control promoter light, run 1, well b":2.84e5,"uninduced reporter light, run 1, well a":11080,"call":"inactive"}
{"target":"Exd2 (Exonuclease 3'-5' domain-containing 2)","amplicon":"DRSC16105","induced reporter light, run 1, well a":1.57e5,"induced reporter light, run 1, well b":1.62e5,"control promoter light, run 1, well a":1.88e5,"control promoter light, run 1, well b":1.32e5,"uninduced reporter light, run 1, well a":9415,"call":"inactive"}
{"target":"CG5592","amplicon":"DRSC10524","induced reporter light, run 1, well a":2.87e5,"induced reporter light, run 1, well b":2.30e5,"control promoter light, run 1, well a":4.14e5,"control promoter light, run 1, well b":4.12e5,"uninduced reporter light, run 1, well a":12035,"call":"inactive"}
{"target":"CG15742","amplicon":"DRSC19708","induced reporter light, run 1, well a":2.01e5,"induced reporter light, run 1, well b":1.48e5,"control promoter light, run 1, well a":2.21e5,"control promoter light, run 1, well b":2.16e5,"uninduced reporter light, run 1, well a":11880,"call":"inactive"}
{"target":"Mgtor (Megator)","amplicon":"DRSC05958","induced reporter light, run 1, well a":82845,"induced reporter light, run 1, well b":98715,"control promoter light, run 1, well a":71560,"control promoter light, run 1, well b":77290,"uninduced reporter light, run 1, well a":7615,"call":"inactive"}
{"target":"CG15533","amplicon":"DRSC15069","induced reporter light, run 1, well a":1.26e5,"induced reporter light, run 1, well b":1.13e5,"control promoter light, run 1, well a":1.73e5,"control promoter light, run 1, well b":1.70e5,"uninduced reporter light, run 1, well a":12335,"call":"inactive"}
{"target":"IleRS (Isoleucyl-tRNA synthetase)","amplicon":"DRSC11667","induced reporter light, run 1, well a":35125,"induced reporter light, run 1, well b":31890,"control promoter light, run 1, well a":48335,"control promoter light, run 1, well b":43835,"uninduced reporter light, run 1, well a":2925,"call":"inactive"}
{"target":"CG5026","amplicon":"DRSC10470","induced reporter light, run 1, well a":1.05e5,"induced reporter light, run 1, well b":98475,"control promoter light, run 1, well a":71935,"control promoter light, run 1, well b":30285,"uninduced reporter light, run 1, well a":6365,"call":"inactive"}
{"target":"abo (abnormal oocyte)","amplicon":"DRSC02926","induced reporter light, run 1, well a":1.13e5,"induced reporter light, run 1, well b":1.33e5,"control promoter light, run 1, well a":64425,"control promoter light, run 1, well b":79160,"uninduced reporter light, run 1, well a":16532,"call":"inactive"}
{"target":"Polr2I (RNA polymerase II subunit I)","amplicon":"DRSC16832","induced reporter light, run 1, well a":1.34e5,"induced reporter light, run 1, well b":1.19e5,"control promoter light, run 1, well a":99755,"control promoter light, run 1, well b":1.07e5,"uninduced reporter light, run 1, well a":8920,"call":"inactive"}
{"target":"CG30340","amplicon":"DRSC05167","induced reporter light, run 1, well a":45770,"induced reporter light, run 1, well b":63095,"control promoter light, run 1, well a":73995,"control promoter light, run 1, well b":80815,"uninduced reporter light, run 1, well a":3110,"call":"inactive"}
{"target":"CG32104","amplicon":"DRSC10127","induced reporter light, run 1, well a":68015,"induced reporter light, run 1, well b":82955,"control promoter light, run 1, well a":92045,"control promoter light, run 1, well b":1.02e5,"uninduced reporter light, run 1, well a":4855,"call":"inactive"}
{"target":"CG32104","amplicon":"DRSC10128","induced reporter light, run 1, well a":1.18e5,"induced reporter light, run 1, well b":1.38e5,"control promoter light, run 1, well a":1.79e5,"control promoter light, run 1, well b":1.58e5,"uninduced reporter light, run 1, well a":10780,"call":"inactive"}
{"target":"Ugt304A1 (UDP-glycosyltransferase family 304 member A1)","amplicon":"DRSC15127","induced reporter light, run 1, well a":96395,"induced reporter light, run 1, well b":86170,"control promoter light, run 1, well a":84675,"control promoter light, run 1, well b":77410,"uninduced reporter light, run 1, well a":4590,"call":"inactive"}

Individual results from the entries so far:
Entry of Mgtor (Megator) [DRSC05958] under “call”: inactive
Result of CG32104 [DRSC10127] in “control promoter light, run 1, well b”: 1.02e5

Further records follow.
{"target":"CG31128","amplicon":"DRSC13675","induced reporter light, run 1, well a":1.72e5,"induced reporter light, run 1, well b":1.51e5,"control promoter light, run 1, well a":1.58e5,"control promoter light, run 1, well b":1.59e5,"uninduced reporter light, run 1, well a":14815,"call":"inactive"}
{"target":"CG12746","amplicon":"DRSC12218","induced reporter light, run 1, well a":1.03e5,"induced reporter light, run 1, well b":1.09e5,"control promoter light, run 1, well a":69285,"control promoter light, run 1, well b":75850,"uninduced reporter light, run 1, well a":9910,"call":"inactive"}
{"target":"CSN1b (COP9 signalosome subunit 1b)","amplicon":"DRSC11108","induced reporter light, run 1, well a":72230,"induced reporter light, run 1, well b":83895,"control promoter light, run 1, well a":35900,"control promoter light, run 1, well b":48685,"uninduced reporter light, run 1, well a":7125,"call":"inactive"}
{"target":"FucT6 (alpha1,6-fucosyltransferase)","amplicon":"DRSC19848","induced reporter light, run 1, well a":1.11e5,"induced reporter light, run 1, well b":1.16e5,"control promoter light, run 1, well a":1.39e5,"control promoter light, run 1, well b":1.61e5,"uninduced reporter light, run 1, well a":7455,"call":"inactive"}
{"target":"Pgant8 (Polypeptide N-Acetylgalactosaminyltransferase 8)","amplicon":"DRSC10801","induced reporter light, run 1, well a":1.68e5,"induced reporter light, run 1, well b":1.56e5,"control promoter light, run 1, well a":2.14e5,"control promoter light, run 1, well b":2.01e5,"uninduced reporter light, run 1, well a":8840,"call":"inactive"}
{"target":"CG31075","amplicon":"DRSC16016","induced reporter light, run 1, well a":1.28e5,"induced reporter light, run 1, well b":1.52e5,"control promoter light, run 1, well a":1.97e5,"control promoter light, run 1, well b":1.75e5,"uninduced reporter light, run 1, well a":12205,"call":"inactive"}
{"target":"CG3788","amplicon":"DRSC04418","induced reporter light, run 1, well a":1.99e5,"induced reporter light, run 1, well b":1.98e5,"control promoter light, run 1, well a":1.95e5,"control promoter light, run 1, well b":1.73e5,"uninduced reporter light, run 1, well a":14720,"call":"inactive"}
{"target":"Sbds (SBDS ribosome maturation factor)","amplicon":"DRSC10992","induced reporter light, run 1, well a":1.21e5,"induced reporter light, run 1, well b":1.33e5,"control promoter light, run 1, well a":85455,"control promoter light, run 1, well b":51690,"uninduced reporter light, run 1, well a":11405,"call":"inactive"}
{"target":"CG4887","amplicon":"DRSC00670","induced reporter light, run 1, well a":1.44e5,"induced reporter light, run 1, well b":1.33e5,"control promoter light, run 1, well a":1.17e5,"control promoter light, run 1, well b":71040,"uninduced reporter light, run 1, well a":11580,"call":"inactive"}
{"target":"shu (shutdown)","amplicon":"DRSC04484","induced reporter light, run 1, well a":2.51e5,"induced reporter light, run 1, well b":2.57e5,"control promoter light, run 1, well a":2.11e5,"control promoter light, run 1, well b":2.36e5,"uninduced reporter light, run 1, well a":15935,"call":"inactive"}
